# PubChem BioAssay AID504791 – Drosophila RNAi Screening Center | 2011
# Aim: 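Genes of the fly required for silencing by miRNA, siRNA or endo-siRNA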 (primary screen)
# Cells: Drosophila S2-derived reporter cells
# Reagent: long dsRNA against Drosophila genes, about 150-250 ng dsRNA per well (siRNA assay); about 80-120 ng (miRNA assay)
# Time to read-out: about 5 days (siRNA assay); about 4 days (miRNA assay)
# Conditions: copper sulfate induction of reporters: 25 µM (siRNA assay); 200 mM stated (miRNA assay), 1-2 days before reading
# Detection: 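Per-well ratio of Renilla over firefly light, expressed relative to that plate's average ratio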
# Call rule: 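a well was a first-pass pick when its plate-scaled ratio rose above 1.5 (siRNA assay) or 1.6 (miRNA assay), or dropped below 0.6; a gene counted only if two separate dsRNAs agreed on retest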
# In all, the deposit lists about 23,000 reagents; shown is an unselected part of those that have a named target and a result. Over the whole deposit, 199 (0.86%) are marked active. 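Plate-scaled ratios behind the calls are not deposited; printed light signals are raw; many rows marked increased or decreased are still called inactive.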 Entries without a mark were called inactive. A plus sign joins genes that one reagent is predicted to hit. Not stated in the record: the direction of the score.
Gene,DRSC id,stable siRNA reporter change,"stable assay Renilla, run 1 (luminescence)","stable assay firefly, run 1 (luminescence)"
CG14357,DRSC14820,,9231,5.10e5
eg,DRSC11885,,8054,4.06e5
obst-A,DRSC20543,,7498,3.54e5
phu,DRSC16390,,5907,3.71e5
GluRIA,DRSC11176,,6523,4.31e5
croc,DRSC11884,,7298,4.93e5
wfs1,DRSC15676,,7464,3.78e5
DJ-1alpha,DRSC07005,,5615,3.45e5
CG13344,DRSC06378,,8042,3.91e5
SNF4Agamma,DRSC13461,,2651,3.57e5
SNF4Agamma,DRSC13463,,3423,3.61e5
SNF4Agamma,DRSC15879,,8332,5.01e5
SNF4Agamma,DRSC16847,,11307,2.96e5
CG14696,DRSC14919,,6663,3.61e5
RnpS1,DRSC15154,,10613,4.48e5
bsf,DRSC02035,,6110,1.05e6
CG13511,DRSC04153,,6599,4.78e5
CG15278,DRSC02481,,7982,5.05e5
UBL3,DRSC20298,,5671,3.78e5
UBL3,DRSC23292,,3332,3.57e5
qtc,DRSC02364,,13244,4.57e5
qtc,DRSC02365,,7580,3.38e5
kmr,DRSC12986,,4580,4.03e5
kmr,DRSC14827,,7702,4.21e5
kmr,DRSC14828,,7797,4.60e5
kmr,DRSC16472,,7714,5.48e5
CG45002,DRSC20144,,3671,2.94e5
CG14408,DRSC19595,,8379,4.56e5
qin,DRSC14782,,9296,5.33e5
CG40948 (retired record),DRSC20944,,4812,4.53e5
CG13008,DRSC19527,,4776,3.15e5
CG13008,DRSC19528,,6179,5.13e5
Obp19d,DRSC20569,,6852,4.74e5
CG4666,DRSC18379,,5700,3.13e5
CG16825,DRSC02526,,7498,4.99e5
CG32706 + CG6999,DRSC18412,,5900,4.96e5
Kat60,DRSC12378,,7342,5.08e5
Irk1,DRSC16106,,6046,2.91e5
Cdc2rk,DRSC07590,,6279,3.89e5
Pepck2,DRSC06013,,6118,3.59e5
CG31743 + CG34313,DRSC02781,,6606,2.09e6
CG31743 + CG34313,DRSC02782,,7379,4.17e5
CG9632,DRSC16528,,7324,3.93e5
Cyp4p2,DRSC07373,,8731,5.65e5
moon,DRSC19497,,4307,3.01e5
CG8547,DRSC07211,,8220,3.24e5
lncRNA:sphinx + ATPsynF,DRSC17191,,6943,4.47e5
CG31347,DRSC21582,,10979,5.97e5
CG13720,DRSC08329,reporter ratio raised past the hit cutoff (active),8242,3.44e5
TwdlZ,DRSC19154,,4283,3.97e5
CG15212,DRSC10212,,6096,4.07e5
pncr004:X (retired record),DRSC19295,,3752,3.19e5
CG34005,DRSC05700,,7635,6.12e5
sfl,DRSC08828,,5679,4.53e5
sfl,DRSC08830,,4815,4.07e5
Rac2,DRSC11262,reporter ratio lowered past the hit cutoff,4503,5.23e5
CG9776,DRSC12127,,18754,5.37e5

Records above whose gene name begins with K or k (5):
Gene,DRSC id,stable siRNA reporter change,"stable assay Renilla, run 1 (luminescence)","stable assay firefly, run 1 (luminescence)"
kmr,DRSC12986,,4580,4.03e5
kmr,DRSC14827,,7702,4.21e5
kmr,DRSC14828,,7797,4.60e5
kmr,DRSC16472,,7714,5.48e5
Kat60,DRSC12378,,7342,5.08e5
